Data as given in PubChem BioAssay AID504784 (Drosophila RNAi Screening Center, 2011).

Assay: 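Search for regulators of lipid droplet storage in oleate-fed fly cells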 (primary screen)
Cells: Drosophila Kc167 embryonic cells
Reagents: long dsRNA against Drosophila genes, about 250 ng dsRNA per well
Time to read-out: 4 days
Conditions: cells fed 400 µM oleic acid bound to BSA
Measurement: 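Microscope images give a droplet-to-nucleus area ratio, taken as log and converted to a screen-wide B-score; higher values mean greater lipid storage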
Reading the numbers: droplet/nuclear area B-score: higher = more stored lipid (overstorage)
The screen tested about 17,000 reagents; shown is a random part of those that have a named target and a result. 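Each column is one replicate's B-score; the combined score over replicates was not deposited, so single values may mislead.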 Names joined by + are all predicted targets of the reagent. Reagent sequences are not shown.

The opening 2 records as a preview:
no.	predicted target	DRSC id	droplet/nuclear area B-score, replicate 1	droplet/nuclear area B-score, replicate 2	droplet/nuclear area B-score, replicate 3
1	CG17687	DRSC10279	1.13	1.09	
2	Jhbp13	DRSC02913	-1.41	0.0419	

The listing, from the first entry:
no.	predicted target	DRSC id	droplet/nuclear area B-score, replicate 1	droplet/nuclear area B-score, replicate 2	droplet/nuclear area B-score, replicate 3
1	CG17687	DRSC10279	1.13	1.09	
2	Jhbp13	DRSC02913	-1.41	0.0419	
3	Pgm2a	DRSC07068	0.0177	-0.216	
4	CG13081	DRSC02185	0.373	-0.872	
5	CG17127	DRSC02581	-0.734	0.929	
6	NHP2	DRSC11229	1.21	-0.0507	
7	Hey	DRSC07440	-0.0449	-0.269	
8	Hey	DRSC23030	1.16	0.0877	
9	Shark	DRSC07680	-4.29	3.19	
10	CG32483	DRSC07902	-0.427	-0.0457	
11	Fem-1	DRSC07322	-0.642	-2.14	
12	CG14502	DRSC06473	0.0293	0.122	
13	beta-PheRS	DRSC15859	-0.28	1.05	
14	GatC + PolG2	DRSC03312	0.992	-0.194	
15	CG2747	DRSC15450	1.53	-0.281	
16	CG1677	DRSC18116	-0.958	-0.627	
17	CG3106	DRSC18279	-0.525	1.86	-1.03
18	nsl1	DRSC15625	0.145	-1.71	
19	Camp	DRSC07004	0.435	0.108	
20	PGRP-SB2	DRSC11092	0.129	-0.00294	
21	Or65c	DRSC21312	2.78	0.76	
22	Cht7	DRSC08538	-0.604	-1.04	
23	Cht7	DRSC21783	-1.08	0.985	
24	CG6034	DRSC10572	-0.000143	-0.795	
25	Sgs7	DRSC11281	0.371	0.819	
26	CG1271	DRSC08290	0.568	0.369	
27	CG5910	DRSC11786	-0.0483	-0.0108	
28	Cpr72Eb	DRSC09870	0.0971	1.24	
29	Culd	DRSC10262	0.206	-0.322	
30	CtsK2	DRSC06897	2.59	-0.684	
31	CG30016	DRSC05242	2.22	-0.0558	
32	Nup188	DRSC21830	0.00515	0.716	
33	CG5687	DRSC08568	-0.316	-0.462	
34	CLS	DRSC15642	-0.608	-0.639	
35	Nep7	DRSC15830	1.82	-0.0673	
36	KFase	DRSC03258	1.03	-0.927	
37	CG5916	DRSC15917	1.15	-0.62	
38	Mgat4b	DRSC10256	0.271	1.41	
39	kat-60L1	DRSC12184	-0.653	-0.6	
40	CG12009	DRSC08217	0.962	0.899	
41	CG14739	DRSC14959	-0.0127	-0.653	
42	CG31436	DRSC14661	0.95	0.0922	
43	Mst57Da	DRSC16744	6.07	-2.04	
44	TrpRS-m	DRSC10848	0.16	2.02	0.718
45	SdhB	DRSC05018	0.815	-2.12	-1.26
46	SdhB	DRSC21367	-0.264	-1.16	
47	L2HGDH	DRSC02082	0.218	-1.2	
48	Mps1	DRSC16273	-1.96	0.936	
49	Lnk	DRSC16729	-0.102		
50	Drip	DRSC07405	-1.54	-0.322	
51	Dp1	DRSC07403	0.262	0.474	
52	dnk	DRSC16933	1.42	2.82	
53	DIP2	DRSC08582	-0.0776		
54	Akap200	DRSC01864	1.32	-2.74	
55	CG32461	DRSC11594	-0.135	-0.624	
56	CG18178	DRSC10302	1.42	1.87	
